# Measurements published in patent US9720005B2, “Immunoassay for compounds of the NBOMe family” (Randox Laboratories Limited, priority 2014, dated 2017).
# Some entries share one result that the patent states for a list of compounds. At least one structure is not confirmed: it was looked up by name or label, or the drawing left a doubt.
# Tested on: Antibody (RS2708)
# Experiment: Competitive ELISA for NBOMe based compounds (Example 13), HRP tracer vs calibrator/cross-reactant
# Type: binding, sheep
# Conditions: text summary of Table 2 data
# Description: IgG was extracted from the antisera using ammonium sulphate/caprylic acid precipitation and the purified antibody was immobilised on a 96 well ELISA plate at 5 μg/ml in 10 mM TRIS buffer, pH 8.5 overnight at 4° C. […] The plate was washed (×3) with TBST and the calibrator (25I-NBOMe.HCL) or potential cross reactants added (50 μl per well), followed by HRP tracer (75 μl/well) to the appropriate wells. The plates were then incubated for 60 minutes at 25° C. […] 125 μL of signal (TMB) was then added to each well for 20 mins at room temperature in the dark. The reaction was stopped by the addition of 125 μl of 0.2 M Sulphuric Acid per well and the plates read immediately at 450 nm. Calibration curves were generated and these were used to determine the sensitivity and specificity of the immunoassay for 25I-NBOMe-HCL and potential cross-reactants. The data are inputted to a computer program called ‘KC Junior’ (Biotek). It gives a 4 parameter fit curve and allows the calculation of concentrations between the standard runs. This program is used to calculate the IC50 values by dividing the 0 ng/ml optical density (OD) value by 2 and obtaining the concentration value from the curve for this OD. The results of this study are presented in Tables 1-3, cross-reactivity being calculated according to the following formula: % CR=IC50 25I-NBOMe.HCL/IC50 CR×100
# Wherein % CR is the percentage cross-reactivity, IC50 25I-NBOMe HCL is the concentration of 25I-NBOMe-HCL which causes 50% displacement of signal and IC50 CR is the concentration of potential cross-reactant that causes 50% displacement of signal.
row,Compound,cross reactivity when compared to 100% for 25I-NBOMe.HCl
1,COc1cc(CCNCc2ccccc2O)c(OC)cc1N [25(NH2)-NBOH],less than 35%
2,COc1cc([N+](=O)[O-])c(OC)cc1CCNCc1ccccc1O [Compound 25N-NBOH],less than 35%

# Same assay, conditions: text summary of Table 4 data; measured according to Example 13
row,Compound,% cross reactivity when compared to 100% for 25I-NBOMe.HCl
1,COc1cc(CCN)c(OC)cc1Br [Compound 2C-B],less than 5%
2,CCc1cc(OC)c(CCN)cc1OC [Compound 2C-E],less than 5%
3,COc1cc(CCN)c(OC)cc1I [Compound 2C-I],less than 5%
4,"COc1cc(CC(C)N)c(OC)cc1Br (stereo not drawn) [DOB, 2,5-Dimethoxy-4-bromoamphetamine]",less than 5%
